These results are taken from PubChem BioAssay AID493027 (The Scripps Research Institute Molecular Screening Center, 2011).

Amino acid sequences for entries named in this document (tags omitted). A change or cut given only in a name is not applied to a line headed by its entry.
UniProt O60240: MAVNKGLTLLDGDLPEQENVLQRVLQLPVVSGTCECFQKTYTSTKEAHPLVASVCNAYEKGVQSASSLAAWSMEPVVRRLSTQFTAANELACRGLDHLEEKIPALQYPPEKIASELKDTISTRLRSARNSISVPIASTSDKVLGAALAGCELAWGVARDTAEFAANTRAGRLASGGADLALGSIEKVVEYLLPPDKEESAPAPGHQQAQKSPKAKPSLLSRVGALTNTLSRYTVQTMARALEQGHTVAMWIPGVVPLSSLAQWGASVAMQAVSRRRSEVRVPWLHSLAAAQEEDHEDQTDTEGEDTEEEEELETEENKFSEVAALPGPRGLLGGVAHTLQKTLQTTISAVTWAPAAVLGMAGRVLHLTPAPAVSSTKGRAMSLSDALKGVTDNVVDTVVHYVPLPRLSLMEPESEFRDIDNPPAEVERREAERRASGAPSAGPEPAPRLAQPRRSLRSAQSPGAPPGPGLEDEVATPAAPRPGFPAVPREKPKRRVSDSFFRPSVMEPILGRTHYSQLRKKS
UniProt Q8WTS1: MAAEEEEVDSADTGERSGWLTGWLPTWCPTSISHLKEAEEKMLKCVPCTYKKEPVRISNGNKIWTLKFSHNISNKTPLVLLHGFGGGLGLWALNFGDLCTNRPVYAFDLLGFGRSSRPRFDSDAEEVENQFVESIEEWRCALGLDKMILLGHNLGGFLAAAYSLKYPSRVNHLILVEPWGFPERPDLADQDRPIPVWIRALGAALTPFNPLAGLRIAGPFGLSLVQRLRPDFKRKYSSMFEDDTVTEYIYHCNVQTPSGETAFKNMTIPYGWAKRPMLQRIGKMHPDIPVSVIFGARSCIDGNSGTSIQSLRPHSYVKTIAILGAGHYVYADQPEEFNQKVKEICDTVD

Several values for one entry are separate records, joined by “and”; a condition that tells them apart may be missing. Equal entries are not always repeated. Among all 2,000 compounds or so, about 45 (2%) were called active.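 Rule for the calls: active = inhibition above the screen-wide mean inhibition plus 3 SD (cut at about 44% in these data); inactive = the rest.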 This is one part of the list. Where a SMILES comes first, the peptide text is derived from it.

The inhibition is the relative decrease from the control value, in per cent.

The target of this test is Perilipin-1 (Homo sapiens) + 1-acylglycerol-3-phosphate O-acyltransferase ABHD5 (Homo sapiens) (UniProt O60240+Q8WTS1). Briefly: ABHD5-PLIN1 interaction inhibitors, pilot screen, cell lysate, split luciferase complementation, luminescence, NIH validation set (AID 493027).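 Note: 0% = DMSO wells with the 100% control not disclosed.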 As to conditions: split G. princeps luciferase complementation, 4 h; at 7.9 µM, stronger effect = higher value.
In the case of `Cc1cc(O)c(C(C)C)cc1C1(c2cc(C(C)C)c(O)cc2C)OC(=O)c2ccccc21`, the inhibition is inactive: 36%.
For `COc1ccc(C2CC(c3ccc([N+](=O)[O-])cc3)=NN2C(=O)c2ccccc2)cc1OC` (configuration not stated), the inhibition is inactive: -4.89%.
For `CCCCCC(O)c1cccc(OCc2ccc3ccccc3n2)c1` (configuration not stated) the value was inactive: 14.8%; for `O=c1ccn([C@@H]2O[C@H](CO)[C@@H](O)[C@H]2O)c(=O)[nH]1`, inactive: -4.21%.
Regarding `CC(=O)N1CC2(C)CN(C(C)=O)CC(C)(C1)C2`, the inhibition was inactive: -2.82%.
For `CC1(C#CC[N+]2(C)CCCCC2)CCC2C(O1)c1ccccc1OC2(C)C` (configuration not stated) the value was inactive: -0.14%.
Turning to `Cc1ccc(C(=O)COC(=O)c2cccc(N3C(=O)c4c(C)nc5ccccc5c4C3=O)c2)cc1C`, the inhibition is inactive: 1.41%.
For `CC(=O)NC(CC(C)C)C(=O)NC(Cc1ccccc1)C(N)=O` (stereo not drawn) (Ac-Leu-Phe-NH2; configuration not given here) the value was inactive: -3.91%.
For `Cc1ccnc(NS(=O)(=O)c2ccc(N)cc2)n1` the value was inactive: -6.8%; for `Cc1c(OCC(=O)NC(Cc2c[nH]c3ccc(O)cc23)C(=O)O)ccc2c3c(c(=O)oc12)CCC3` (configuration not stated), inactive: -9.89%; for `NC(=O)OCC(COC(N)=O)c1ccccc1`, inactive: -8.74%.
For `C[C@H]([C@@H](N)C(=O)N[C@@H](C(=O)O)[C@@H]1O[C@H](n2ccc(=O)[nH]c2=O)[C@@H](O)[C@H]1O)[C@@H](O)c1ccc(O)cn1` the value was inactive: 8.07%; for `Cc1cccc(OCC(=O)Nc2ccc(C(=O)NCC(C)C)cc2)c1`, inactive: -6.6%; for `COc1cc(CC(=O)NCCc2ccc(S(N)(=O)=O)cc2)cc(OC)c1OC`, inactive: 1.29%.
For `COc1ccc(C(=O)CCN2CCc3cc(OC)c(OC)cc3C2)cc1`, the inhibition was inactive: 23.8%.
For `Cc1cc(OC(=O)CNC(=O)OC(C)(C)C)c2c(C)cc(=O)oc2c1` the value was inactive: 6.38%; for `O=C(NCCN1CCOCC1)c1ccc(Cl)cc1`, inactive: -3.93%; for `Cc1cccc2c(=O)n3c(nc12)CCCCC3`, inactive: -4.08%.
For `O=C1CCCN1CCCn1cnc2c([nH]c3ccc(F)cc32)c1=O` the value was inactive: -3.75%.
For `CC(=O)CCCCn1c(=O)c2c(ncn2C)n(C)c1=O` the value was inactive: 3.13%.
For `O=C(CCCN1C(=O)/C(=C\c2cccs2)SC1=S)Nc1ccccn1`, the inhibition was inactive: 5.07%.
With `O=C(O)CCn1cnc2ccccc2c1=O`, the inhibition was inactive: 3.53%.
For `CC(=O)N(CCC1(c2ccc(C)cc2)CCOC(C(C)C)C1)Cc1ccco1` (configuration not stated) the value was inactive: 4.94%.
For `O=C(Oc1ccccc1)Oc1ccc2c(c1)oc(=O)c1ccccc12` the value was inactive: -0.35%; for `Cc1nc(N[C@@H](Cc2c[nH]c3ccccc23)C(=O)O)c2oc3ccccc3c2n1`, inactive: 5.88%; for `CCOC(=O)N1CCc2[nH]c3ccc(C)cc3c2C1`, inactive: 18.8%.
For `Oc1ccc(Oc2ncc(Cl)cc2Cl)cc1` the value was inactive: -2.32%; for `CNCCCC12CCC(c3ccccc31)c1ccccc12`, inactive: -8.78% and inactive: -2.5%; for `CCCCCC(=O)O[C@]1(C(C)=O)CC[C@H]2[C@@H]3CCC4=CC(=O)CC[C@]4(C)[C@H]3CC[C@@]21C`, inactive: 0.86%.
With `Cc1ccc2[nH]c3c(=O)n(CCc4cnc[nH]4)cnc3c2c1`, the inhibition was inactive: 0.46%.
Regarding `COC(=O)C1=CN(Cc2cccs2)C=C(C(=O)OC)C1c1cccc(Cl)c1`, the inhibition is inactive: 11.1%.
As to `CC(C)NC[C@@H](O)c1ccc(O)c(O)c1`, the inhibition is inactive: -21.4%.
For `COc1ccc(S(N)(=O)=O)cc1C(N)=O` the value was inactive: -5.05%; for `CO[C@@H]1O[C@@H]2COC(c3ccccc3)O[C@@H]2[C@@H](OC)[C@@H]1O` (some centres not stated), inactive: 0.52%.
Consider `CC(=O)N1CCN(c2ccc(OC[C@H]3CO[C@](Cn4ccnc4)(c4ccc(Cl)cc4Cl)O3)cc2)CC1`, for which the inhibition is inactive: 21.4%.
For `CC(=O)[C@H]1CC[C@H]2[C@@H]3CCC4=CC(=O)CC[C@]4(C)[C@H]3CC[C@]12C` the value was inactive: -3.47%.
Regarding `CN(C)CCOC(c1ccccc1)c1ccccc1`, the inhibition was inactive: -7.45%.
For `CN1CCc2cccc3c2[C@@H]1Cc1ccc(O)c(O)c1-3` the value was inactive: 12.5%; for `O=C(NCc1ccco1)/C(=C\C=C\c1ccccc1)NC(=O)c1ccccc1Br`, inactive: 15.9%; for `COc1ccc(C2NC(C(=O)O)Cc3c2[nH]c2ccccc32)cc1CN1CCN(c2ccc(F)cc2)CC1` (configuration not stated), inactive: 3.66%.
For `CSCCC1NC2(C(=O)Nc3ccc(Cl)cc32)[C@@H]2C(=O)N(C3CCCC3)C(=O)[C@H]12` (some centres not stated) the value was inactive: -0.47%; for `CN1C2CCC1CC(OC(c1ccccc1)c1ccccc1)C2` (configuration not stated), inactive: 1.58%; for `COc1cccc(OC)c1C(=O)Nc1nc2ccc([N+](=O)[O-])cc2s1`, inactive: 0.1%.
`CCC[C@@H]1C[C@@H](C(=O)N[C@H]([C@@H](C)O)[C@H]2O[C@H](SC)[C@H](O)[C@@H](O)C2O)N(C)C1` (some centres not stated): the inhibition was inactive: -11.3%.
For `CCCN(CCC)S(=O)(=O)c1ccc(C(=O)O)cc1` the value was inactive: 2.83%; for `C[C@]12CC[C@@H]3c4ccc(O)cc4CC[C@H]3[C@@H]1CC[C@@H]2O`, inactive: 0.73%.
For `CC(NC(=O)OCc1ccccc1)C(=O)N1CC(O)CC1C(=O)O` (configuration not stated) the value was inactive: -6.96%; for `CC(NC(=O)c1ccc(N2CCNCC2)c([N+](=O)[O-])c1)C12CC3CC(CC(C3)C1)C2` (configuration not stated), inactive: -0.37%; for `Cn1c(=O)oc2cc(S(=O)(=O)N3CCc4ccccc4C3)ccc21`, inactive: -1.46%.
For `CN(C)CCN(Cc1ccccc1)c1ccccn1` the value was inactive: -7.62%.
For the compound `CC1(C)C(=O)OC(c2cccs2)C2(CCCCC2)C1=O` (configuration not stated), the inhibition is inactive: -2.96%.
For `C=CCN1C(=O)c2oc3ccccc3c(=O)c2C1c1ccc(O)c(OC)c1` (configuration not stated) the value was inactive: 5.81%.
For `COc1cccc2c(=O)c3ccccc3oc12` the value was inactive: -14.7%; for `O=c1cnn([C@@H]2O[C@H](CO)[C@@H](O)[C@H]2O)c(=O)[nH]1`, inactive: -8.69%; for `CC1=CC(C)(C)N2C(=O)C3(NCCc4c3[nH]c3ccccc43)c3cc(C)cc1c32` (configuration not stated), inactive: 8.09%.
As for `COc1ccc(CC(=O)N2CC3(C)CC2CC(C)(C)C3)cc1OC` (configuration not stated), the inhibition is inactive: -9.37%.
With `O=C(/C=C/c1ccco1)NCc1ccc2c(c1)OCO2`, the inhibition is inactive: 12.9%.
For the compound `O=C(Nc1ccc(Cl)cn1)Nc1ccccc1Cl`, the inhibition is inactive: -3.38%.
For `C[N+](C)(C)CCCCCCCCCC[N+](C)(C)C` the value was inactive: -5.57%; for `O=C(O)/C=C/c1ccc(O)c(O)c1`, inactive: -2.22%.
For `O=C(/C=C/c1ccco1)N1CCN(c2ccccc2)CC1` the value was inactive: 4.55%.
For `CN1C(=O)C(O)(CC(=O)c2ccccc2O)c2cc(Br)ccc21` (configuration not stated) the value was inactive: 5.1%.
Regarding `COc1cc2c(cc1OC)C(=S)NC(C)(C)C2`, the inhibition was inactive: 2.14%.
For `COc1ccc(C2NC(=O)c3ccccc3N2)cc1OC` (configuration not stated) the value was inactive: -0.79%; for `O=C(O)C1Sc2[nH]c(=O)sc2C2c3ccc(O)cc3OC(=O)C12` (configuration not stated), inactive: -6.65%.
With `Fc1ccc(NC(=S)Nc2ccccc2Cl)cc1`, the inhibition is inactive: -9.16%.
For `CC(=O)OC[C@H]1O[C@@H](n2ncc(=O)[nH]c2=O)[C@H](OC(C)=O)[C@@H]1OC(C)=O` the value was inactive: 1.76%.
For `COc1ccc(C(=O)Oc2ccc3c(C)cc(=O)oc3c2C(C)=O)cc1` the value was inactive: 0.69%; for `NS(=O)(=O)c1ccc(CNC(=O)c2cc(-c3ccccc3)nc3ccccc23)cc1`, inactive: 10.2%.
`COc1cc(OC)c(C2C(C#N)=C(N)OC3=C2C(=O)CC(C)(C)C3)cc1OC` (configuration not stated): the inhibition is inactive: -0.37%.
Regarding `O=C1C(=O)c2ccccc2C(O)=C1c1ccccc1F`, the inhibition is inactive: -3.35%.
As for `COCCOC(=O)c1c(C)oc2ccc(OCc3cc(C(=O)OC)oc3C)cc12`, the inhibition is inactive: -4.12%.
For `COc1cc(C(=O)NCCCCCC(=O)O)cc(OC)c1OC` the value was inactive: 1.01%; for `CCO/C([O-])=N/c1c[n+](N2CCOCC2)no1`, inactive: -8.54%.
For `COc1ccc(CCNc2ncnc3c2[nH]c2cc(OC)c(OC)cc23)cc1OC` the value was inactive: 4.41%; for `CCCCCC#CCC#CCC#CCC#CCCCC(=O)O`, inactive: 34.5%.
For `Cc1cc(=O)oc2cc(OC(C)C(=O)NCC3CCCO3)ccc12` (configuration not stated) the value was inactive: 0.51%; for `CC1=C(/C=C/C(C)=C/C=C/C(C)=C/C(=O)O)C(C)(C)CCC1`, inactive: 6.99%.
Consider `O=C(Nc1ccccc1)c1ccccc1CCc1ccccc1`, for which the inhibition is inactive: -0.9%.
For the compound `Cc1ccc(CN2CCN(CCCc3ccccc3)CC2CCO)cc1` (configuration not stated), the inhibition is inactive: -7.7%.
For `CCN(Cc1cnn(C)c1)Cc1nc(C(c2ccccc2)c2ccccc2)no1` the value was inactive: 5.41%.
On to `Cc1[nH]c2ccccc2c1/C=C/c1nc2ccccc2c(=O)n1CCO`, for which the inhibition was inactive: 21%.
On to `COc1ccc2[nH]cc(C(=O)CCl)c2c1`, for which the inhibition was inactive: 11.6%.
For `CCN1C(=O)C(CC(=O)Nc2ccc(F)cc2)N(Cc2ccco2)C1=S` (configuration not stated) the value was inactive: 10.9%.
For `Nc1cccc(C(=O)O)c1` the value was inactive: -8.92%.
Regarding `COc1cc(CNCc2ccc(OC)c(OC)c2OC)cc(OC)c1`, the inhibition is inactive: -5.93%.
Turning to `COc1ccc2c(c1OC)C(=O)OC2C1c2c(cc3c(c2OC)OCO3)CCN1C` (configuration not stated), the inhibition is inactive: -9.43%.
For `CCCN1C[C@H](CSC)C[C@@H]2c3cccc4[nH]cc(c34)C[C@H]21` the value was inactive: 3.13%; for `COc1ccc(CCNC(=O)c2ccc(Cl)cc2)cc1OC`, inactive: -5.87%.
For `CCC(=O)Oc1ccc(/C(CC)=C(\CC)c2ccc(OC(=O)CC)cc2)cc1` the value was inactive: 8.03%; for `COc1ccc(C2N3CC4(C)CN2CC(C)(C3)C4)cc1OC` (configuration not stated), inactive: -2.9%.
Regarding `Cc1ccc2c(c1)c1c3n2CCCNC3CCC1` (configuration not stated), the inhibition is inactive: 0.07%.
